Data from paper PMC9909590.
These are yes or no findings as the source states them, for the method shown. In cells and extracts the contact can be indirect. For some assays here: Tags and fused reporters may be left off the sequences shown.

Amino acid sequences for entries named in this document (tags omitted). A change or cut given only in a name is not applied to a line headed by its entry.
UniProt P13681: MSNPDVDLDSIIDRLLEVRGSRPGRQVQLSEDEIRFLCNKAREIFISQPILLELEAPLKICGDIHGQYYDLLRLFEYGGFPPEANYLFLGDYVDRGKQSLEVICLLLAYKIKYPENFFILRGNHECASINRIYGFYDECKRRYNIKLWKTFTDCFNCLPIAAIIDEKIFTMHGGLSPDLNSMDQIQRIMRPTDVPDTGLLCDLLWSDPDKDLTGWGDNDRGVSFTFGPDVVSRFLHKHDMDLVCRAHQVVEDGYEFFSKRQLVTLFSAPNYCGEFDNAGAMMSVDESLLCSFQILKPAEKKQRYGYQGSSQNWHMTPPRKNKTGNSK
UniProt Q96UP3: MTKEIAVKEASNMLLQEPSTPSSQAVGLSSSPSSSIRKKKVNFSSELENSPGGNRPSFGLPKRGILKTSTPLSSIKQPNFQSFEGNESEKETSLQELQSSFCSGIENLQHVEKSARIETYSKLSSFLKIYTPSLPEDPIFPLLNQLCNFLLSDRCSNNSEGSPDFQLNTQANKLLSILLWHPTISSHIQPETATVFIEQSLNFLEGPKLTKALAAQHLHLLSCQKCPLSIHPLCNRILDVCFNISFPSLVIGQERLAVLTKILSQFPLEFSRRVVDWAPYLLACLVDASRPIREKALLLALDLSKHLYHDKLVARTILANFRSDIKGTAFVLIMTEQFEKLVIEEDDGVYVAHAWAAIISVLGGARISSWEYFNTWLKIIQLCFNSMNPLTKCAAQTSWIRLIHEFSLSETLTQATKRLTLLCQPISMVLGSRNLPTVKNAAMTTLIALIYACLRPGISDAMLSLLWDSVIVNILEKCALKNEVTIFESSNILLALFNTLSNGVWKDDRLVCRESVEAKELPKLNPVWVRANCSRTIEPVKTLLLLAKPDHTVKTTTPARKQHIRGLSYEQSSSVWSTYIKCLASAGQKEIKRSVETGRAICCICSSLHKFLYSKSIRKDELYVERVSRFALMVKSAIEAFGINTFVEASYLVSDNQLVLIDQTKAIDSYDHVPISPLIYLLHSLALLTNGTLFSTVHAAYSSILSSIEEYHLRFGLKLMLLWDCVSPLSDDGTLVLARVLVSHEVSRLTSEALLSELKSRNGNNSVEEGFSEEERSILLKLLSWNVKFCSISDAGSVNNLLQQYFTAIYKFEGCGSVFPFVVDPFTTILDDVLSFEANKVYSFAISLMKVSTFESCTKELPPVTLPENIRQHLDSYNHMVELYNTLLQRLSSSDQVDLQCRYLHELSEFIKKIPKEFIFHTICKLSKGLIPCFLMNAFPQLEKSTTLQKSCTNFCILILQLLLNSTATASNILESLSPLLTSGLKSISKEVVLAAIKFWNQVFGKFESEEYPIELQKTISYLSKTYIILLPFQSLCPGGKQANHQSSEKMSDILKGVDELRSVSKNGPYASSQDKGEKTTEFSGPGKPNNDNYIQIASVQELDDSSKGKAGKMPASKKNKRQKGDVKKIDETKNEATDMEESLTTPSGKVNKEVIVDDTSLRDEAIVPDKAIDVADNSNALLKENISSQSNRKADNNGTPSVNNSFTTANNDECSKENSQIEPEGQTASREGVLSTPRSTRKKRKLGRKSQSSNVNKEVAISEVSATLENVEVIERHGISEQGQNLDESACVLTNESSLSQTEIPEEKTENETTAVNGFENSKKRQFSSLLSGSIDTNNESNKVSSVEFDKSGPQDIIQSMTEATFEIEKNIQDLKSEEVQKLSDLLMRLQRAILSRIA

How the values were obtained:
[1] = molecular target: T1, Sds21-13Myc (PP1) (Schizosaccharomyces pombe) (UniProt P23880); assay: co-IP; extracts of S. pombe cells expressing both Flag-tagged Rif1 and Myc-tagged PP1; PP1 immunoprecipitated with anti-c-Myc antibody on Protein G Dynabeads, 1 h; IP buffer 20 mM HEPES-KOH pH 7.6, 50 mM potassium acetate, 5 mM magnesium acetate, 0.1 M sorbitol, 0.1% Triton X-100, 2 mM DTT; co-immunoprecipitated Rif1 detected by blot
T1 sequence: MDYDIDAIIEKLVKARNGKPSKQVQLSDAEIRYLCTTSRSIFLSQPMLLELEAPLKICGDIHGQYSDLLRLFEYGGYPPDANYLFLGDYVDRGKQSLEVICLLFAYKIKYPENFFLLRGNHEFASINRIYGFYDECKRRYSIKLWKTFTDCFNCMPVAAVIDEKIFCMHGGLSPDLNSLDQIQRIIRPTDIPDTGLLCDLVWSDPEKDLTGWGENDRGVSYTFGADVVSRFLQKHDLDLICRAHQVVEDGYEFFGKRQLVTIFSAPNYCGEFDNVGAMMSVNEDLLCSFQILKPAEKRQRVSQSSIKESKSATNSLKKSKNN

[2] = molecular target: Dis2-13Myc (PP1) (Schizosaccharomyces pombe) (UniProt P13681); assay: as above

binding [1]: no binding | binding [2]: no binding
Substance: rif1PP1bsmut-Flag3 (PP1-binding site mutant of Rif1) (from UniProt Q96UP3)
